# Results as given in PubChem BioAssay AID2685 (National Center for Advancing Translational Sciences (NCATS), 2010).
# In all, about 320,000 compounds went through this assay and about 2,100 (0.66%) were called active. The shares of active, inactive and inconclusive entries below differ from those in the screen. The call rests on the fitted dose curve; in most records, active means well fitted inhibition curve with a large enough effect in the signal ratio, with a control signal flat (not every such curve was filed as active); inconclusive means small, poorly fitted or top-dose-only effect, or effect the other way, or a change in a side signal; inactive means flat fitted curve, though single readings scatter; the % refers to the signal ratio. Where the call is inconclusive, the potency comes from a doubtful curve fit.
# Assay: qHTS Assay for Lipid Storage Modulators in Drosophila S3 Cells
# Conditions: BODIPY lipid droplet fluorescence, 18-24 h, cells fed with added oleic acid; lipid storage change, negative = inhibition: at 46.1 µM (top of the series) unless noted
# Summary of the method: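 Laser-scanning cytometry quantifies lipid droplet accumulation (500–530 nm total intensity; droplet/cell object ratio) in oleic acid-fed (400 uM added) Drosophila S3 cells treated with a concentration series. 20 uM Triacsin C defined 100% inhibition.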
# On the % scale 0 is the no-effect control and ±100 the full control effect; potency means the concentration at half of the fitted maximal effect.
Compound,"lipid storage change, negative = inhibition",Potency
CC(C)c1ccc(NC2CCCN(C(=O)c3ccccc3-c3ncc[nH]3)C2)cc1 (configuration not stated),inactive,
O=C(CSc1ccc(Cl)cc1)N1N=CCC1c1ccccc1 (configuration not stated),inconclusive: -1.38%,
COc1ccc(C(=O)N/N=C2\SCC(=O)N2Cc2ccc3c(c2)OCO3)c(OC)c1,,"inconclusive: 29.1 µM [cytotoxic, single point]"
COc1ccc(NS(=O)(=O)c2cccc(NC(=O)COc3ccc(OC)cc3)c2)cc1,inconclusive: -27.9%,
CCc1sc(C(=O)NC)cc1Br,,"inconclusive: 5.8 µM [falling, single point]"
CC(CCc1ccccc1)NC(=O)CCNS(=O)(=O)c1ccccc1C(F)(F)F (configuration not stated),inconclusive: -9.72%,
C=CCSc1nnc(NC(=O)C23CC4CC(CC(NC(C)=O)(C4)C2)C3)s1,,"inconclusive: 0.103 µM [falling, partial curve, poor fit]"
CC1CN(C(=O)COC(=O)c2cc(Cl)ccc2[N+](=O)[O-])CC(C)O1 (configuration not stated),inconclusive: 4.74%,
O=C(c1ccccc1)N1CCN(C(=S)NCCc2ccccc2)CC1,inconclusive: -20.1%,
CC(C)(C)OC(=O)N1CCC(c2c(C(=O)N3CCN(C4CCCCC4)CC3)cnn2-c2ccc(F)cc2)CC1,inconclusive: -16.1%,
COc1ccccc1OCC(=O)N(Cc1nc(-c2ccccc2)no1)C(C)C,inconclusive: 107%,
O=C(NCc1ccc(F)cc1)c1cnn2ccccc12,inconclusive: 6.37%,
COc1ccc(/C=C/C(=O)OCC(=O)c2ccc[nH]2)cc1,,"inconclusive: 7.31 µM [activator, partial curve, poor fit]"
COc1cccc(N2C(=O)C3CC=C(Cl)CC3C2=O)c1 (configuration not stated),inconclusive: 25.4%,
Nc1nc(SCc2cccc([N+](=O)[O-])c2)n[nH]1,inconclusive: 25.8%,
COc1ccccc1N(CC(=O)Nc1ccccc1C(=O)NC(C)C)S(C)(=O)=O,inconclusive: 18.4%,
O=[N+]([O-])c1ccccc1S(=O)(=O)N1CCN(CC2CC=CCC2)CC1 (configuration not stated),inconclusive: 24.9% [at 9.22 µM],
Cc1cc(C)c(S(=O)(=O)NCc2cn3c(C)csc3n2)cc1C,inconclusive: 28.9%,
NS(=O)(=O)c1ccc(CCNC(=O)C(=O)c2c[nH]c3ccccc23)cc1,,"inconclusive: 0.092 µM [activator, full curve]"
O=C(CN1CCN(c2ccccn2)CC1)N1c2ccccc2Sc2ccc(C(F)(F)F)cc21,inconclusive: -45.8%,
O=C(CCc1nc2ccccc2c(=O)[nH]1)Nc1nnc(SCc2ccccc2F)s1,,"inconclusive: 32.6 µM [activator, single point]"
CN1C(=O)C(CC(=O)Nc2ccc(F)cc2)N(Cc2ccco2)C1=S (configuration not stated),inconclusive: -10.1%,
COC(=O)c1ccc(Cl)c(NC(=O)CN2CCN(C)CC2)c1,,active: 25.9 µM
Cc1ccc(S(=O)(=O)N(C)C)cc1NC(=O)COC(=O)/C=C/c1ccc2ccccc2n1,inconclusive: -12.8%,
CC(c1ccccc1)N1CC(C(=O)N2CCN(Cc3ccc(C#N)cc3)CC2)CC1=O (configuration not stated),inconclusive,
COCCCN(C(=S)Nc1cc(C)cc(C)c1)C(C)c1ccncc1 (configuration not stated),inconclusive: 35.8%,

# By substructure: those above containing two or more sulfur atoms (three)
Compound,"lipid storage change, negative = inhibition",Potency
C=CCSc1nnc(NC(=O)C23CC4CC(CC(NC(C)=O)(C4)C2)C3)s1,,"inconclusive: 0.103 µM [falling, partial curve, poor fit]"
Cc1cc(C)c(S(=O)(=O)NCc2cn3c(C)csc3n2)cc1C,inconclusive: 28.9%,
O=C(CCc1nc2ccccc2c(=O)[nH]1)Nc1nnc(SCc2ccccc2F)s1,,"inconclusive: 32.6 µM [activator, single point]"

# Remaining list, next part:

Compound,"lipid storage change, negative = inhibition",Potency
CC(Sc1nc(N)cc(=O)[nH]1)C(=O)NNC(=O)c1cccc(Cl)c1 (configuration not stated),inconclusive: -2.52%,
Cc1c(NC(=O)COC(=O)CCC(=O)c2ccc(Cl)cc2)c(=O)n(-c2ccccc2)n1C,inconclusive: 3.2%,
CCOc1ccc(-n2c(SCc3cc(=O)oc4cc(C)ccc34)nnc2-c2cccnc2)cc1,,"inconclusive: 6.51 µM [activator, single point]"
COc1c(C)cc(Br)cc1C(=O)Nc1cccc(-c2nc3ncccc3o2)c1,inconclusive: 13.3% [at 9.22 µM],
Clc1nc2c(ccc3ccccc32)[nH]1,inconclusive: 18.4%,
O=C(CSc1nc2ccccc2c(=O)n1Cc1ccc(Cl)cc1)NCc1cccs1,inconclusive: -4.11%,
Cc1cccc(C)c1OCc1nnc(SCC(=O)Nc2ccccc2F)o1,inactive,
CCCOC(=O)C(C)Sc1n[nH]c(=O)[nH]c1=O (configuration not stated),inconclusive: 0.152%,
C#CCN1C(=O)C(O)(CC(=O)c2cc(OC)ccc2OC)c2ccccc21 (configuration not stated),,"inconclusive: 0.651 µM [activator, full curve]"
COCCCn1c(Cc2csc(Nc3ccc(F)cc3)n2)nnc1SCC(N)=O,inconclusive: -5.93%,
Nc1ncnc2c1ncn2CCOc1ccccc1,,"inconclusive: 2.06 µM [activator, full curve]"
CC(C)(C)c1ccc(C(=O)OCC(=O)N2CCC(c3ccccc3)=N2)cc1,,"inconclusive: 0.0411 µM [activator, single point]"
COCCn1nnnc1C(c1ccc(C)cc1)N1CCN(Cc2ccc3c(c2)OCO3)CC1 (configuration not stated),inconclusive: -6.93%,
COc1cc(SC)ccc1C(=O)OCC(=O)NCCC1=CCCCC1,inconclusive: -29.8%,
CCCc1nc(N)nc2c1C(=O)CC(C)(C)C2,inconclusive: -1.43%,
C[C@H](NC(=O)c1nc[nH]c1C(=O)NCC(=O)OCc1ccccc1)C(=O)OCc1ccccc1,inconclusive: -55.5%,
COc1ccccc1CCNC(=O)C(=O)c1cn(CC(=O)N2CCCC2)c2ccccc12,inconclusive: -28.4%,
Cc1cc(C)nc(SCCCn2c(=O)[nH]c3ccccc32)n1,inconclusive: 23.4%,
CC1CCCCC1NC(=O)CN1C(=O)COc2ccccc21 (configuration not stated),inactive,
O=C(CN1CCC(n2nnc3ccccc32)CC1)NCc1cccs1,inconclusive: -6.55%,
CCOc1ccc(N=C2NC(=O)CS2)cc1,inconclusive: 31%,
CNC(=O)c1[nH]cnc1C(=O)Nc1ccc(F)cc1,inconclusive: 14.8%,
CCCCCN(C(=O)NC(=O)NC(C)CC)S(C)(=O)=O (configuration not stated),inconclusive: -36.9%,
Cc1cccc(NS(=O)(=O)c2cc(C(=O)OCC(=O)Nc3cc(C)on3)ccc2C)c1,inconclusive: 39.9%,
CCOC(=O)c1c(NC(=O)CSc2nc3ccccc3s2)sc(C(C)=O)c1C,inconclusive: -19.7%,
CC(C)CC(OC(=O)c1ccco1)C(=O)NCC1CCCO1 (configuration not stated),inconclusive: -10.6%,

Compound,"lipid storage change, negative = inhibition",Potency
O=C(CN1CCC(c2nc3ccccc3s2)CC1)N1CCCCC1,inconclusive: -23.5% [at 9.22 µM],
COC(=O)c1ccc2c(c1)N(Cc1nc(-c3cccc(C)c3)oc1C)C(=O)C1CCCN21 (configuration not stated),,"inconclusive: 0.116 µM [activator, full curve, poor fit]"
Cc1c(C(=O)Nc2ccccn2)oc2ccc(Br)cc12,inconclusive: 36.1%,
Cc1cc2nc(SCCOC(=O)Nc3ccccc3)nc(C)c2cc1C,inconclusive: 34.5%,
COc1ccccc1CCNC(=O)c1cc(-c2ccccn2)nc2ccccc12,inconclusive: -100%,
CCCCn1nnnc1SCC(=O)N1CCN(C(=O)c2ccco2)CC1,,"inconclusive: 0.259 µM [falling, full curve, poor fit]"
CC(=O)N1CCN(C(=O)C(Cc2c[nH]c3ccccc23)NC(=O)c2ccccc2Cl)CC1 (configuration not stated),,"inconclusive: 13 µM [falling, partial curve]"
Cc1ccc(NC(=O)c2c(-c3c(F)cccc3Cl)noc2C)cc1F,inconclusive: -4.39%,
COc1ccc(-c2ccc3c(c2)S(=O)(=O)c2cccc(C(=O)NC4CCCCC4)c2C3=O)cc1OC,inconclusive: -13.3%,
CCOC(=O)Nc1ccc2c(c1)N(C(=O)N1CCN(C)CC1)c1ccccc1CC2,inconclusive: 39.4%,
CC1=NN(C(=O)COc2ccc(C)c(C)c2)C(O)(c2ccc(Cl)cc2)C1 (configuration not stated),,"inconclusive: 0.0366 µM [activator, partial curve]"
COCCNC(=S)N1CCCC(CO)C1 (configuration not stated),,"inconclusive: 6.51 µM [falling, single point]"
Cc1cccc(NC(=O)CCCN2C(=O)c3ccccc3C2=O)n1,,"inconclusive: 16.4 µM [falling, partial curve]"
CCCCNC(=O)c1ccccc1SCC(=O)NC1CCCCCCC1,inconclusive: 17.5%,
CN(C)C(CNS(=O)(=O)c1ccc2ccccc2c1)c1ccccc1 (configuration not stated),inconclusive: -11.1%,
Cc1cc(C)nc(SCC(=O)Nc2ccnc3ccccc23)n1,inconclusive: -71.9%,
CSc1ccc(CN2CCN(Cc3ccccc3)C(CCO)C2)cc1 (configuration not stated),inconclusive: 11.2%,
O=C(Nc1ccc(Cl)c(S(=O)(=O)N2CCOCC2)c1)c1ccc(Cl)nc1,inconclusive,
Cc1c(NS(=O)(=O)c2ccc(Cl)c(C(=O)OC(C)C(=O)N3CCOCC3)c2)c(=O)n(-c2ccccc2)n1C (configuration not stated),inconclusive: -52.7%,
Cc1cccc(N=C2NC(=O)/C(=C/C=C/c3ccco3)S2)c1C,,"inconclusive: 20.6 µM [falling, single point]"
Nn1c(SCC(=O)Nc2ccc3c(c2)OCO3)nnc1C1CC1,,"inconclusive: 3.26 µM [activator, partial curve]"
COC(=O)C(C(=O)OC)C(C[N+](=O)[O-])c1ccc(O)c(OC)c1 (configuration not stated),,"inconclusive: 16.4 µM [falling, partial curve, poor fit]"
CCCCCn1c(=O)[nH]c2cc(C(=O)NCCc3ccc(OC)c(OC)c3)ccc2c1=O,inconclusive: -7.51%,
O=c1oc2ccccc2c(NC(c2ccccc2)c2ccccc2)c1[N+](=O)[O-],inconclusive: 1.04%,
CCCCCn1nc(C(=O)OCC(=O)c2c(N)n(C)c(=O)n(C)c2=O)c2ccccc2c1=O,inconclusive: 2.04%,
